{"sequences": {"note": "Protein sequences, listed by entry. Tags and fused reporters are not part of them. Lines headed by an entry give the natural chain unless they say otherwise; changes in a name come on top. Chains listed by the source or under a name are the forms on record and can include a tag or linker.", "DREB2A_(195-276) Y242A (O82132, form named)": "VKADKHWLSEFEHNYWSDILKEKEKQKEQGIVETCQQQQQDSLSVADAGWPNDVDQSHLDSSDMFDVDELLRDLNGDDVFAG"}, "source": "paper PMC10796322", "about": "“Molecular switching in transcription through splicing and proline-isomerization regulates stress responses in plants” (Nature Communications, 2024)", "target": "T1, Med25-ACID_(532-680), activator interaction domain (ACID) of mediator complex subunit 25 (Arabidopsis thaliana) (UniProt Q7XYY2)", "T1 sequence": "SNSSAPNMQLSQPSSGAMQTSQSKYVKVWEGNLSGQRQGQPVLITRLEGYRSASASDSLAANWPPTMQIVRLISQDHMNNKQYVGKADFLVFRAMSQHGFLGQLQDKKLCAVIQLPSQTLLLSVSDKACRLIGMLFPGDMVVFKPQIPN", "assay": "ITC; 25 °C; 50 mM HEPES pH 7.4, 100 mM NaCl, 0.5 mM TCEP; ~1:10 cell to syringe concentration ratio, cell around 15 µM for high-affinity fragments; one-set-of-sites model; which protein was in the cell is not stated; both purified", "note": "No constants are given. Whether binding was seen depends on the method and setting."}
{"substance": "DREB2A_(195-276) Y242A (from UniProt O82132 195-276) (domain or fragment)", "values": [{"measurement": "binding", "value": "no binding"}]}
